From patent US20100086958A1, “NOVEL ENZYME” (priority 2008, published 2010)
Some entries share one result that the patent states for a list of compounds.

B1: Bsp184FDH: wild type FDH from Burkholderia cenocepacia PC184, Seq ID No: 2, C-terminal His-tagged (protein, listed as Burkholderia cenocepacia)
chain: MATVLCVLYPDPVDGYPPRYVRDTIPVITHYADGQTAPTPAGPPGFRPGELVGSVSGALGLRGYMEAHGHTLIVTSDKDGPDSEFERRLPEADVVISQPFWPAYLSAERIARAPKLKLALTAGIGSDHVDLDAAARARITVAEVTGSNSISVAEHVVMTTLALVRNYLPSHAVAQQGGWNIADCVSRSYDVEGMHFGTVGAGRIGLAVLRRLQPFGLQLHYTQRHRLDASIEQALALTYHADVASLASAVDIVNLQIPLYPSTEHLFDAAMIARMKRGAYLINTARAKLVDRDAVVNALTSGHLAGYGGDVWFPQPAPADHPWRTMPFNGMTPHISGTSLSAQARYAAGTLEILQCWFDGRPIRNEYLIVDGGTLAGTGAQSYRLT
modifications: C-terminal His tag
B2: Bsp383FDH: wild type FDH from Burkholderia sp 383, Seq ID No: 1, C-terminal His-tagged (protein, listed as Burkholderia sp.)
chain: MATVLCVLYPDPVDGYPPRYVRDAIPVITHYADGQTAPTPAGPPGFQPGELVGCVSGALGLRGYMEAHGHTLIVTSDKDSPDSEFERRLPEADVVISQPFWPAYLTAERIARAPKLKLALTAGIGSDHVDLDAAARARITVAEVTGSNSISVAEHVVMTTLALVRNYLPSHAIAQQGGWNIADCVSRSYDVEGMHFGTVGAGRIGLAVLRRLKPFGLQLHYTQRHRLDASIEQELGLTYHADAASLASAVDIVNLQIPLYPSTEHLFDAAMIARMKRGAYLINTARAKLVDRDAVVNALTSGHLAGYGGDVWFPQPAPADHPWRTMPFNGMTPHISGTSLSAQARYAAGTLEILQCWFDGKPIRNEYLIVDGGTLAGTGAQSYRLT
modifications: C-terminal His tag

Assay: pH profile determination of FDH-catalysed formate oxidation
Format: biochemical
Protocol: The pH profiles for BcenFDH1 (Bsp184FDH) and BspFDH2 (Bsp383FDH) catalyzed formate oxidation, shown in FIG. 13(a) and (b), were investigated by Uv/Vis spectrophotometry in a 96-well plate format. […] From this series, 170 μL was transferred into wells of the 96-well plate. 10 μL of the FDHs from a stock solution solution (64.1 μM for BcenFDH1 (Bsp184FDH) and 78.0 μM for BspFDH2 (Bsp383FDH)) were added into each well and equilibrated for 3 min at 30° C. The reaction was initiated by addition of 20 μL of NAD^+ solution from a freshly prepared stock (10 mM) using an 8-channel pipette. The plate was then immediately placed into the plate reader. The plate was shaken for 5 s to ensure thorough mixing, and then time-based measurements were recorded every 15 s for 10 min. The rate of formate oxidation was calculated using an extinction coefficient of 3.38 mM^−1 (for 200 μL).

Row | Molecule | pH range in which activities change little
1 | B1 | 4.5-9
2 | B2 | 4.5-9
